{"sequences": {"note": "The chains behind the UniProt entries cited, without tags or fusion partners. Where a name states a change or a piece, a line headed by the entry shows the natural chain unless it says otherwise.", "UniProt Q8WTV1": "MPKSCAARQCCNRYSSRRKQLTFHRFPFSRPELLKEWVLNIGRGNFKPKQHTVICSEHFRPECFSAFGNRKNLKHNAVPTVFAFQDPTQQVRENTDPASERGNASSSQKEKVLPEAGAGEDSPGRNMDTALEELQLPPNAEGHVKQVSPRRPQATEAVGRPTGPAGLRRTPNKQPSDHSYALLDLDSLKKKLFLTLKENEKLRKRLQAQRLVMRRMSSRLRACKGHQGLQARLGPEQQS", "UniProt Q9BRN9": "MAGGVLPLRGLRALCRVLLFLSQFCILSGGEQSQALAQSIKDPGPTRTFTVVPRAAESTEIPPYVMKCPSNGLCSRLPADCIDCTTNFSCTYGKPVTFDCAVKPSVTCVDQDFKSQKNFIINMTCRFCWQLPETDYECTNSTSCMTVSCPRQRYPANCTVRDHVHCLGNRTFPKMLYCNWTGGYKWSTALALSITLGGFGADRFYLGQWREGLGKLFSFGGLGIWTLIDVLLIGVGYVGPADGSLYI", "UniProt Q96IK0": "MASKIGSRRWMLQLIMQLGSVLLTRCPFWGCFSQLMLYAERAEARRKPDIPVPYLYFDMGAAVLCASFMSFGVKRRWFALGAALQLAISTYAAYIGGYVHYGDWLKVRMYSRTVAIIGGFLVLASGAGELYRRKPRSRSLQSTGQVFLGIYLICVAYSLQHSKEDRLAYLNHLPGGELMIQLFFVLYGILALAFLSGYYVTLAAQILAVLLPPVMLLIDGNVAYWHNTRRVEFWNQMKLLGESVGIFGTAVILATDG", "UniProt Q9BVX2": "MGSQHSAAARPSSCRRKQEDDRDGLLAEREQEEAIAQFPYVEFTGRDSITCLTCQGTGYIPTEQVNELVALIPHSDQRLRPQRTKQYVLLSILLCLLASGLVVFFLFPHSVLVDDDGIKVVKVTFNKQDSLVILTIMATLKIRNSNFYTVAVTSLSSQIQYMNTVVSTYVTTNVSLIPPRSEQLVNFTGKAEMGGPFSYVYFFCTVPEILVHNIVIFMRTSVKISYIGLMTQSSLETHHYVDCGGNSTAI", "UniProt Q96AN5": "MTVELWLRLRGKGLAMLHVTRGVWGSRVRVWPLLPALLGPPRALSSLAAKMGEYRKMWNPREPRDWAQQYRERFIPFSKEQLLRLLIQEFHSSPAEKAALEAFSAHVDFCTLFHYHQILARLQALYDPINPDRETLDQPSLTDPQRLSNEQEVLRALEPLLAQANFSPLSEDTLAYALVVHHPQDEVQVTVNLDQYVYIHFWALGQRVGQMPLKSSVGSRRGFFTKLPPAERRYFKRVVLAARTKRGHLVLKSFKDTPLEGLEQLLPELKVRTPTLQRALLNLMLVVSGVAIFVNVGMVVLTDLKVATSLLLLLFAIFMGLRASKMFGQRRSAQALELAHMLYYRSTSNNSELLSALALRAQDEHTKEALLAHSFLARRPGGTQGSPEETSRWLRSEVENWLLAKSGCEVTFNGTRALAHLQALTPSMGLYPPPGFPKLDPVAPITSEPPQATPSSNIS", "UniProt O76062": "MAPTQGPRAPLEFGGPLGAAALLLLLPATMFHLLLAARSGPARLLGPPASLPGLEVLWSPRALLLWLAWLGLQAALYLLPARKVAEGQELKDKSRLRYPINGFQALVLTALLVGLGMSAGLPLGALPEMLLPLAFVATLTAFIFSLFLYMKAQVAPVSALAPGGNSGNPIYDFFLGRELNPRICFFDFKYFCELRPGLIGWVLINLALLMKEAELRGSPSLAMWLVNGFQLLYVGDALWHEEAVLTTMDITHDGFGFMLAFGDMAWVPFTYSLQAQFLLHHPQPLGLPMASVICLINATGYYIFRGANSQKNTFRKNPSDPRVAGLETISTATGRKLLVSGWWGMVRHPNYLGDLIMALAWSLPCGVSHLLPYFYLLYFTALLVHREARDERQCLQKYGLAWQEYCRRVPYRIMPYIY", "UniProt Q6P9G4": "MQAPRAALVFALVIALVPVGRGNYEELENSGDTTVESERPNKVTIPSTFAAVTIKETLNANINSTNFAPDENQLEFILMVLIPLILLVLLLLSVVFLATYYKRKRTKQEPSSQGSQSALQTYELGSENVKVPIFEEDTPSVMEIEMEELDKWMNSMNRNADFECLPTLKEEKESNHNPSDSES", "UniProt Q9NPI0": "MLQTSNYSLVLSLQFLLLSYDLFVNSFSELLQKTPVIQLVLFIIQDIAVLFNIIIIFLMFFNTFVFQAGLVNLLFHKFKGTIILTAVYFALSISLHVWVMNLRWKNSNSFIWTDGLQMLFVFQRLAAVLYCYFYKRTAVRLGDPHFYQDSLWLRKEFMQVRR", "UniProt P51854": "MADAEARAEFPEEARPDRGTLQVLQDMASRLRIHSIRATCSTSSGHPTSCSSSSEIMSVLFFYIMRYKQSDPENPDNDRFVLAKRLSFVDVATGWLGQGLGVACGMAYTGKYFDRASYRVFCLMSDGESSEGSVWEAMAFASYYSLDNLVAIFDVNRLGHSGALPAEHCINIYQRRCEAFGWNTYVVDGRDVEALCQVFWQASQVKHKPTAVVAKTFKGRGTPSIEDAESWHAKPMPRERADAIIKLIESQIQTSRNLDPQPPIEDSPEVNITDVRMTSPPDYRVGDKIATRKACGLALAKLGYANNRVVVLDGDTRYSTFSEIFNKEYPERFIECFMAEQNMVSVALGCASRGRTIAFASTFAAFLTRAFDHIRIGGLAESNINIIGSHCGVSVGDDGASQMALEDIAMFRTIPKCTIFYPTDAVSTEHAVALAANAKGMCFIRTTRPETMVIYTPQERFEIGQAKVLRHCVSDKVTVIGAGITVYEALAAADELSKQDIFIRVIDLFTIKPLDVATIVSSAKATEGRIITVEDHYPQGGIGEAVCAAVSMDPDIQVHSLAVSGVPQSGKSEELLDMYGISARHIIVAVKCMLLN", "UniProt Q8N131": "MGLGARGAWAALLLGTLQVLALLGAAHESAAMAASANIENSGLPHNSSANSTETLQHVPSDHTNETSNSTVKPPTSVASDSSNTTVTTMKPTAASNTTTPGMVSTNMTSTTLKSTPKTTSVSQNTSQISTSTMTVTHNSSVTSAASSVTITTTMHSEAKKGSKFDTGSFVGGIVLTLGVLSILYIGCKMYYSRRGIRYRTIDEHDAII", "UniProt Q24JP5": "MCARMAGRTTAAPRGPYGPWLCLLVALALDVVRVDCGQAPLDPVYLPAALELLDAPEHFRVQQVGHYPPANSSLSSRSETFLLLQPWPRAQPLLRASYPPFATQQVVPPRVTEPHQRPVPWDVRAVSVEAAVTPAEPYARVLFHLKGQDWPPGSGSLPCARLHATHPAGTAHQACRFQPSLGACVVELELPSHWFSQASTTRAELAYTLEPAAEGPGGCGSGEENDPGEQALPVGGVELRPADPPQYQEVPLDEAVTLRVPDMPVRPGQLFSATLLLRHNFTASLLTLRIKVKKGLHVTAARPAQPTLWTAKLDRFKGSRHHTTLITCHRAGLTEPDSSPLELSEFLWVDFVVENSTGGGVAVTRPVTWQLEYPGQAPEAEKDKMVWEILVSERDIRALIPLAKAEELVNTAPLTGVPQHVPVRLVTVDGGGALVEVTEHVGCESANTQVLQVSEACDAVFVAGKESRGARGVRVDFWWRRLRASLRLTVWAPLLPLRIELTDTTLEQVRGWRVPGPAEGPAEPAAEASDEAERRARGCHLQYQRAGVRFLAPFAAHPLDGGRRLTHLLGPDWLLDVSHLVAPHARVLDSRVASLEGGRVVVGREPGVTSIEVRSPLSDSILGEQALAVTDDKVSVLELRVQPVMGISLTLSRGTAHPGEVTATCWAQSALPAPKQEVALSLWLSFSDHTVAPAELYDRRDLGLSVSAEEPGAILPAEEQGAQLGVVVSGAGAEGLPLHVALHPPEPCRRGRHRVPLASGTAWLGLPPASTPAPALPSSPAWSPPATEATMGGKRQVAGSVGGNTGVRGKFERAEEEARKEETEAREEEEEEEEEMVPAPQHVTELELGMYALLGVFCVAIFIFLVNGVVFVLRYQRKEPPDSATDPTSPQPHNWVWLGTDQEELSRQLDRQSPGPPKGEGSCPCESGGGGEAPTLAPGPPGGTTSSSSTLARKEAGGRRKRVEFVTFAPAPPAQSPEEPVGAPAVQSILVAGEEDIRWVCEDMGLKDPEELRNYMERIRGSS", "UniProt O75204": "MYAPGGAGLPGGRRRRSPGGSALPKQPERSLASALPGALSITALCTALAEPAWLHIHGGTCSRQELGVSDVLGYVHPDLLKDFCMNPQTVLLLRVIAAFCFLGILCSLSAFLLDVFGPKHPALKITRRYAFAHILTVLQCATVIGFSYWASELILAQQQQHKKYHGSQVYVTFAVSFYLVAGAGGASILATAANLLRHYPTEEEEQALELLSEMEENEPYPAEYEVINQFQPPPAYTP", "UniProt Q96EK4, whole entry, looked up": "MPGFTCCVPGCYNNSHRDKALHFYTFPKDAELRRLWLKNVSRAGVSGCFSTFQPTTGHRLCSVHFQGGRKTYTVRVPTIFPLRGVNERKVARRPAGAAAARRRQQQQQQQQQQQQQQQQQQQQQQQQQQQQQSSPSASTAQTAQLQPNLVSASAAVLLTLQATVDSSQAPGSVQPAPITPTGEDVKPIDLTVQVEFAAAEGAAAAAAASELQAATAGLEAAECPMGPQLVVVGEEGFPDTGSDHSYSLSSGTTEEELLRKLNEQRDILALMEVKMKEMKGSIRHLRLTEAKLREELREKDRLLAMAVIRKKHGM", "UniProt Q96CG3": "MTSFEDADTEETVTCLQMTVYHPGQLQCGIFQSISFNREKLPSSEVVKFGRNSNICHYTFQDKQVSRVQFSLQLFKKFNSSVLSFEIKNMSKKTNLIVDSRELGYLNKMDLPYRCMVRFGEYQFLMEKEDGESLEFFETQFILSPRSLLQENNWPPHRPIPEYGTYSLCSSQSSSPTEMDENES", "UniProt Q7Z402": "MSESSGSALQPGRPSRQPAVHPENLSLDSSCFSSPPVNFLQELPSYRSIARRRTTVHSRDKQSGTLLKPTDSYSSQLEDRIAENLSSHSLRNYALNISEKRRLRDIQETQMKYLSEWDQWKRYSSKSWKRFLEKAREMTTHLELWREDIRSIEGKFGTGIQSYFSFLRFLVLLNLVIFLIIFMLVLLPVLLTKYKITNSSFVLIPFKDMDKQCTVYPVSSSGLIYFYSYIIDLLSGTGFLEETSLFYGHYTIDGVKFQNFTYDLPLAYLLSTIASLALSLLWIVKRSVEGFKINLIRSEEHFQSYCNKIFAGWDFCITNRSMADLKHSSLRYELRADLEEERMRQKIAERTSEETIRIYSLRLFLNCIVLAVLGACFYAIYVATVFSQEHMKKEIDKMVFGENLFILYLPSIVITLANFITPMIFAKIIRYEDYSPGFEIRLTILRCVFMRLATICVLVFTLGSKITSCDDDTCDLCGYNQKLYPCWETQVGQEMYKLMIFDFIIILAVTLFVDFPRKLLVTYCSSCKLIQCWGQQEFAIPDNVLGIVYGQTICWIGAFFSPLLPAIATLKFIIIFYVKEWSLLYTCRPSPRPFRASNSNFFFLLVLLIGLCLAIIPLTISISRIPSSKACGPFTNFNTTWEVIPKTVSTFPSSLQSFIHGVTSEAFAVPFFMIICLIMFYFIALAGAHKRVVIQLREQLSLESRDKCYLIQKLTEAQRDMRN", "UniProt Q9BVK8": "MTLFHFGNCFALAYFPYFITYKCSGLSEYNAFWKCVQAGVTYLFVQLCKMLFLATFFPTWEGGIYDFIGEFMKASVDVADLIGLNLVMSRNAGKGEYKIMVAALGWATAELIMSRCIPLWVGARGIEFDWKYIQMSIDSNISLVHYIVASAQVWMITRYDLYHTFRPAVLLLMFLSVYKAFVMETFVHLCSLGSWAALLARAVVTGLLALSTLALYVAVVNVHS", "UniProt Q04726": "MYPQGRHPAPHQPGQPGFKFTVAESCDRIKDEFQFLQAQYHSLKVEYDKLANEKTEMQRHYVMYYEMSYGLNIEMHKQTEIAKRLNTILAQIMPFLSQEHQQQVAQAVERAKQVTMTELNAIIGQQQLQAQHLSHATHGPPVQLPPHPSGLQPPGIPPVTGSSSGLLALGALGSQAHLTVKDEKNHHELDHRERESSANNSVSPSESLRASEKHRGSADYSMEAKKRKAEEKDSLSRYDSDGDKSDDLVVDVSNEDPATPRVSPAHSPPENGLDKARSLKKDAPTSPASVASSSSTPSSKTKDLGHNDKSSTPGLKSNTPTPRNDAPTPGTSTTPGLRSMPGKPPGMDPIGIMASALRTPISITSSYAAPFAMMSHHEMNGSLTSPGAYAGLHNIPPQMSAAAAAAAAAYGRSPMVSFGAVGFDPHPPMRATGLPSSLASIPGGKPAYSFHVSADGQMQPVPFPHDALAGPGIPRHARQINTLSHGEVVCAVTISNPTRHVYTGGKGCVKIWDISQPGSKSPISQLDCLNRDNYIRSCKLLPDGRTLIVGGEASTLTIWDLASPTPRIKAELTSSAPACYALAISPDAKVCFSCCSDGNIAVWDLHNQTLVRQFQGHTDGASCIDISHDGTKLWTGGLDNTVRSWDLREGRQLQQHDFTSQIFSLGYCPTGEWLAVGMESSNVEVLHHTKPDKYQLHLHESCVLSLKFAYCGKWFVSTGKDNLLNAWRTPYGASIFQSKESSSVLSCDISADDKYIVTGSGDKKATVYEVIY"}, "source": "the supplement of paper PMC10849652", "assay_in_all_cases": "log2 fold change, soluble protein after heating vs DMSO (PISA); higher = thermal stabilisation; K562 lysate, 10 uM; active = over 0.2 and 3.5 SD of the protein, either way, in both replicates (recomputed)", "key": {"[1]": {"compound": "O=C(CCCCCCC(=O)Nc1ccccc1)NO [vorinostat]", "procedure,_shortened": "(§1)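 Pellets of K562 cells were dounce-homogenised in PBS pH 7.4 with 1 mM MgCl2, and the crude extract was held at 1 mg/mL protein for a 30 min treatment with 10 μM compound. Aliquots were heated for 3 min over 48°C-58°C and pooled before NP-40 was added to 0.5% at 4°C. The supernatant from 21,000xg for 90 min was quantified by TMTpro 16plex LC-MS/MS with channel sums equalised. Values are reported from duplicates as log-two fold change in thermal stability relative to solvent controls.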"}, "[2]": {"compound": "O=C(O)c1ccc2c(c1)nc(Nc1cccc(Cl)c1)c1ccncc12 [silmitasertib]", "procedure,_shortened": "as §1"}, "[3]": {"compound": "O=C1NC(=O)C(c2cnc3ccccn23)=C1c1cn2c3c(cc(F)cc13)CN(C(=O)N1CCCCC1)CC2", "procedure,_shortened": "as §1"}, "[4]": {"compound": "c1cn2cc(-c3ccc4cn[nH]c4c3)nc(Nc3ccc(N4CCOCC4)cc3)c2n1 [entospletinib]", "procedure,_shortened": "as §1"}, "[5]": {"compound": "NCC(=O)Nc1ccc(-n2nc(C(F)(F)F)cc2-c2ccc3c(ccc4ccccc43)c2)cc1", "procedure,_shortened": "as §1"}}, "note": "This is one part of the list."}
{"target": "THAP3 (UniProt Q8WTV1)", "values": [{"measurement": "log2 fold change", "setting": "[1]", "value": "inactive: -0.243"}, {"measurement": "log2 fold change", "setting": "[2]", "value": "inactive: -0.064"}, {"measurement": "log2 fold change", "setting": "[3]", "value": "inactive: 0.14"}]}
{"target": "TM2D3 (UniProt Q9BRN9)", "values": [{"measurement": "log2 fold change", "setting": "[1]", "value": "inactive: 0.096"}, {"measurement": "log2 fold change", "setting": "[2]", "value": "inactive: 0.339"}, {"measurement": "log2 fold change", "setting": "[4]", "value": "inactive: -0.184"}]}
{"target": "TMEM101 (UniProt Q96IK0)", "values": [{"measurement": "log2 fold change", "setting": "[1]", "value": "inactive: 0.116"}, {"measurement": "log2 fold change", "setting": "[2]", "value": "inactive: 0.057"}, {"measurement": "log2 fold change", "setting": "[3]", "value": "inactive: 0.06"}, {"measurement": "log2 fold change", "setting": "[4]", "value": "inactive: -0.064"}]}
{"target": "TMEM106C (UniProt Q9BVX2)", "values": [{"measurement": "log2 fold change", "setting": "[1]", "value": "inactive: -0.134"}, {"measurement": "log2 fold change", "setting": "[2]", "value": "inactive: -0.104"}, {"measurement": "log2 fold change", "setting": "[4]", "value": "inactive: -0.27"}]}
{"target": "TMEM175 (UniProt Q9BSA9)", "values": [{"measurement": "log2 fold change", "setting": "[1]", "value": "inactive: -0.239"}, {"measurement": "log2 fold change", "setting": "[2]", "value": "inactive: 0"}, {"measurement": "log2 fold change", "setting": "[3]", "value": "inactive: -0.013"}]}
{"target": "TMEM143 (UniProt Q96AN5)", "values": [{"measurement": "log2 fold change", "setting": "[5]", "value": "inactive: -0.045"}, {"measurement": "log2 fold change", "setting": "[3]", "value": "inactive: 0.092"}, {"measurement": "log2 fold change", "setting": "[4]", "value": "inactive: 0.057"}]}
{"target": "TM7SF2 (UniProt O76062)", "values": [{"measurement": "log2 fold change", "setting": "[3]", "value": "inactive: -0.161"}]}
{"target": "TMEM154 (UniProt Q6P9G4)", "values": [{"measurement": "log2 fold change", "setting": "[3]", "value": "inactive: 0.008"}, {"measurement": "log2 fold change", "setting": "[4]", "value": "inactive: -0.056"}]}
{"target": "TMEM184B (UniProt Q9Y519)", "values": [{"measurement": "log2 fold change", "setting": "[3]", "value": "inactive: 0.074"}]}
{"target": "TMEM138 (UniProt Q9NPI0)", "values": [{"measurement": "log2 fold change", "setting": "[5]", "value": "inactive: -0.096"}, {"measurement": "log2 fold change", "setting": "[1]", "value": "inactive: 0.164"}, {"measurement": "log2 fold change", "setting": "[2]", "value": "inactive: -0.005"}, {"measurement": "log2 fold change", "setting": "[4]", "value": "inactive: 0.089"}]}
{"target": "TKTL1 (UniProt P51854)", "values": [{"measurement": "log2 fold change", "setting": "[4]", "value": "inactive: 0.203"}]}
{"target": "TMEM123 (UniProt Q8N131)", "values": [{"measurement": "log2 fold change", "setting": "[5]", "value": "inactive: 0.005"}, {"measurement": "log2 fold change", "setting": "[1]", "value": "inactive: -0.025"}, {"measurement": "log2 fold change", "setting": "[2]", "value": "inactive: 0.059"}, {"measurement": "log2 fold change", "setting": "[4]", "value": "inactive: 0.001"}]}
{"target": "THBS1 (UniProt P07996)", "values": [{"measurement": "log2 fold change", "setting": "[5]", "value": "inactive: 0.058"}, {"measurement": "log2 fold change", "setting": "[3]", "value": "inactive: 0.082"}]}
{"target": "TLNRD1 (UniProt Q9H1K6)", "values": [{"measurement": "log2 fold change", "setting": "[3]", "value": "inactive: 0.111"}]}
{"target": "THAP9 (UniProt Q9H5L6)", "values": [{"measurement": "log2 fold change", "setting": "[5]", "value": "inactive: 0.207"}, {"measurement": "log2 fold change", "setting": "[3]", "value": "inactive: 0.09"}, {"measurement": "log2 fold change", "setting": "[4]", "value": "inactive: 0.059"}]}
{"target": "TKT, A0A0B4J1R6", "values": [{"measurement": "log2 fold change", "setting": "[1]", "value": "inactive: 0.064"}, {"measurement": "log2 fold change", "setting": "[2]", "value": "inactive: -0.017"}, {"measurement": "log2 fold change", "setting": "[3]", "value": "inactive: -0.144"}]}
{"target": "TGIF1 (UniProt Q15583)", "values": [{"measurement": "log2 fold change", "setting": "[1]", "value": "inactive: -0.185"}, {"measurement": "log2 fold change", "setting": "[2]", "value": "inactive: -0.07"}, {"measurement": "log2 fold change", "setting": "[3]", "value": "inactive: 0.03"}]}
{"target": "TMEM132A isoform 2 (UniProt Q24JP5)", "values": [{"measurement": "log2 fold change", "setting": "[1]", "value": "inactive: -0.156"}, {"measurement": "log2 fold change", "setting": "[2]", "value": "inactive: 0.351"}, {"measurement": "log2 fold change", "setting": "[3]", "value": "inactive: 0.227"}, {"measurement": "log2 fold change", "setting": "[4]", "value": "inactive: -0.089"}]}
{"target": "TMEM127 (UniProt O75204)", "values": [{"measurement": "log2 fold change", "setting": "[5]", "value": "inactive: 0.05"}, {"measurement": "log2 fold change", "setting": "[1]", "value": "inactive: 0.044"}, {"measurement": "log2 fold change", "setting": "[2]", "value": "inactive: -0.135"}, {"measurement": "log2 fold change", "setting": "[4]", "value": "inactive: -0.197"}]}
{"target": "THAP11 (UniProt Q96EK4)", "values": [{"measurement": "log2 fold change", "setting": "[5]", "value": "inactive: 0.111"}, {"measurement": "log2 fold change", "setting": "[1]", "value": "inactive: -0.08"}, {"measurement": "log2 fold change", "setting": "[2]", "value": "inactive: -0.103"}, {"measurement": "log2 fold change", "setting": "[4]", "value": "inactive: -0.124"}]}
{"target": "TMEM129", "values": [{"measurement": "log2 fold change", "setting": "[1]", "value": "inactive: -0.194"}, {"measurement": "log2 fold change", "setting": "[2]", "value": "inactive: -0.234"}]}
{"target": "THOC2 (UniProt H0Y7U4)", "values": [{"measurement": "log2 fold change", "setting": "[3]", "value": "inactive: 0.005"}]}
{"target": "TIFA (UniProt Q96CG3)", "values": [{"measurement": "log2 fold change", "setting": "[1]", "value": "inactive: 0.086"}, {"measurement": "log2 fold change", "setting": "[2]", "value": "inactive: -0.054"}, {"measurement": "log2 fold change", "setting": "[3]", "value": "inactive: -0.053"}, {"measurement": "log2 fold change", "setting": "[4]", "value": "inactive: 0.023"}]}
{"target": "TMC7 (UniProt Q7Z402)", "values": [{"measurement": "log2 fold change", "setting": "[1]", "value": "inactive: 0.097"}, {"measurement": "log2 fold change", "setting": "[2]", "value": "inactive: 0.035"}]}
{"target": "TICAM1 (UniProt Q8IUC6)", "values": [{"measurement": "log2 fold change", "setting": "[1]", "value": "inactive: 0.146"}, {"measurement": "log2 fold change", "setting": "[2]", "value": "inactive: 0.103"}, {"measurement": "log2 fold change", "setting": "[3]", "value": "inactive: 0.043"}]}
{"target": "TMCC1 (UniProt O94876)", "values": [{"measurement": "log2 fold change", "setting": "[5]", "value": "inactive: 0.052"}, {"measurement": "log2 fold change", "setting": "[4]", "value": "inactive: -0.42"}]}
{"target": "TMEM184C (UniProt Q9NVA4)", "values": [{"measurement": "log2 fold change", "setting": "[1]", "value": "inactive: 0.086"}, {"measurement": "log2 fold change", "setting": "[2]", "value": "inactive: 0.002"}, {"measurement": "log2 fold change", "setting": "[3]", "value": "inactive: 0.006"}, {"measurement": "log2 fold change", "setting": "[4]", "value": "inactive: -0.111"}]}
{"target": "TMEM104 (UniProt Q8NE00)", "values": [{"measurement": "log2 fold change", "setting": "[5]", "value": "inactive: -0.187"}, {"measurement": "log2 fold change", "setting": "[3]", "value": "inactive: -0.042"}]}
{"target": "TMEM147 (UniProt Q9BVK8)", "values": [{"measurement": "log2 fold change", "setting": "[1]", "value": "inactive: 0.286"}, {"measurement": "log2 fold change", "setting": "[2]", "value": "inactive: 0.012"}, {"measurement": "log2 fold change", "setting": "[3]", "value": "inactive: -0.001"}, {"measurement": "log2 fold change", "setting": "[4]", "value": "inactive: 0.084"}]}
{"target": "TLE3 isoform 5 (UniProt Q04726)", "values": [{"measurement": "log2 fold change", "setting": "[1]", "value": "inactive: 0.144"}, {"measurement": "log2 fold change", "setting": "[2]", "value": "inactive: 0.019"}, {"measurement": "log2 fold change", "setting": "[3]", "value": "inactive: -0.058"}, {"measurement": "log2 fold change", "setting": "[4]", "value": "inactive: -0.002"}]}
{"target": "TGFBR1 isoform 2 (UniProt P36897)", "values": [{"measurement": "log2 fold change", "setting": "[1]", "value": "inactive: 0"}, {"measurement": "log2 fold change", "setting": "[2]", "value": "inactive: 0.076"}, {"measurement": "log2 fold change", "setting": "[4]", "value": "inactive: -0.004"}]}
